Test results taken from publication PMC12379019.
No constants are given. Whether binding was seen depends on the method and setting. Binding seen in cells or lysates may run through a third protein. Some results given as binding are weak or reduced against the parent protein; the word gives no strength. Where a sequence is shown, tags or fusion partners need not be part of it.

Protein sequences, listed by entry. Tags and fused reporters are not part of them.
UniProt Q9XTA5: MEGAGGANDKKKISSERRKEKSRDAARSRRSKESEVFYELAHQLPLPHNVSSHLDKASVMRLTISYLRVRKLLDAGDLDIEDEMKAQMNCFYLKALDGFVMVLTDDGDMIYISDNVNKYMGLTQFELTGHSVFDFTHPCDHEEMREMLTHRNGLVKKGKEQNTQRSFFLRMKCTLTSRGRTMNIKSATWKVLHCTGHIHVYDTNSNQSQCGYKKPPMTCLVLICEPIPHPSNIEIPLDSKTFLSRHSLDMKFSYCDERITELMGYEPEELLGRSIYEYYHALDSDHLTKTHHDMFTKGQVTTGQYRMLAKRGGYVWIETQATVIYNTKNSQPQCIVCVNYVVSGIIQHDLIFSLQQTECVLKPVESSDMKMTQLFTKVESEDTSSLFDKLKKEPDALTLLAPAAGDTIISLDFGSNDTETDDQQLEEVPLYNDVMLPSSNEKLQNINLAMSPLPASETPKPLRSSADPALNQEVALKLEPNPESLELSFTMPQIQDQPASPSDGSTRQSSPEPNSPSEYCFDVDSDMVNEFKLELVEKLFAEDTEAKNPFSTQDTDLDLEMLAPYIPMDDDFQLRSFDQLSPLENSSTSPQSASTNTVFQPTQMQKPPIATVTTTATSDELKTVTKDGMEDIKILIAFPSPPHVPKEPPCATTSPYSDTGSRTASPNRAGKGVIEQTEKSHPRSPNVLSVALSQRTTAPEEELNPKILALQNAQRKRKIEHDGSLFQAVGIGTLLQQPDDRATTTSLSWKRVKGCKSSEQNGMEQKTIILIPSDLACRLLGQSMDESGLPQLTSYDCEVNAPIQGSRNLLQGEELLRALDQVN

B1: FLAG-tagged bovine LXRα (liver X receptor alpha) (protein, UniProt Q5E9B6 1-447)
chain: MSLWLEAPVPDVSPDSAVELWEPDAQDASSQPLGSSKCILREESSTPQSAGDTSRMGLEAPEPTALLPGVEAPPESTELRPQKRKKGPAPKMLGNELCSVCGDKASGFHYNVLSCEGCKGFFRRSVIKGARYVCHSGGHCPMDTYMRRKCQECRLRKCRQAGMREECVLSEEQIRLKKMKRQEEEQAQATSAPPRASSPPQVLPQLSPEQLGMIEKLVAAQQLCNRRSFSDQLRVTPWPMAPDPQSREARQQRFAHFTELAIVSVQEIVDFAKQLPGFLQLSREDQIALLKTSAIEVMLLETSRRYNPGSESITFLKDFSYNREDFAKAGLQVEFINPIFEFSRAMNELQLNDAEFALLIAISIFSADRPNVQDQLQVERLQHTYVEALHAYVSIHHPHDRLMFPRMLMKLVSLRTLSSVHSEQVFALRLQDKKLPPLLSEIWDVHE

Assays:
[1] = target: T1, FLAG-tagged bovine LXRα (liver X receptor alpha) (bovine) (UniProt Q5E9B6); assay: co-IP; HEK293 cells co-transfected with FLAG-LXRα and HA-HIF-1α, 100 μM CoCl2 for 8 h to simulate hypoxia; 500 μg RIPA lysate with anti-FLAG or anti-HA antibody overnight at 4°C, protein A/G magnetic beads; blot with the reciprocal antibody
T1 sequence: B1 chain

[2] = target: HA-tagged bovine HIF-1α (bovine) (UniProt Q9XTA5); assay: as above

| Molecule | binding [1] | binding [2] |
| --- | --- | --- |
| HA-tagged bovine HIF-1α (from UniProt Q9XTA5 1-823) | binds |  |
| B1 |  | binds |
